# Test results taken from the supplement of paper PMC10032668.
# Sequences of proteins named here, by UniProt entry; tags and fusion partners are left off.
# ATP6V0D1, P61421, UniProt P61421, whole entry: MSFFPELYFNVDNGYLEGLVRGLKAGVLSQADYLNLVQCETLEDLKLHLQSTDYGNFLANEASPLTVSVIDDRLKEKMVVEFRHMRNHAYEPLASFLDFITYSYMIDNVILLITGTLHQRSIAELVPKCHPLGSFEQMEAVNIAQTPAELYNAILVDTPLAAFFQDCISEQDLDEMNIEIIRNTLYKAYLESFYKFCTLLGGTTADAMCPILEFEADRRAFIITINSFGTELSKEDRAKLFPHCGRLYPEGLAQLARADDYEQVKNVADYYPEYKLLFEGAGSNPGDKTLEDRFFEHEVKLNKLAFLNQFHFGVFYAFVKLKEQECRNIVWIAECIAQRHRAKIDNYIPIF
# CAPRIN1, Q14444, UniProt Q14444, whole entry: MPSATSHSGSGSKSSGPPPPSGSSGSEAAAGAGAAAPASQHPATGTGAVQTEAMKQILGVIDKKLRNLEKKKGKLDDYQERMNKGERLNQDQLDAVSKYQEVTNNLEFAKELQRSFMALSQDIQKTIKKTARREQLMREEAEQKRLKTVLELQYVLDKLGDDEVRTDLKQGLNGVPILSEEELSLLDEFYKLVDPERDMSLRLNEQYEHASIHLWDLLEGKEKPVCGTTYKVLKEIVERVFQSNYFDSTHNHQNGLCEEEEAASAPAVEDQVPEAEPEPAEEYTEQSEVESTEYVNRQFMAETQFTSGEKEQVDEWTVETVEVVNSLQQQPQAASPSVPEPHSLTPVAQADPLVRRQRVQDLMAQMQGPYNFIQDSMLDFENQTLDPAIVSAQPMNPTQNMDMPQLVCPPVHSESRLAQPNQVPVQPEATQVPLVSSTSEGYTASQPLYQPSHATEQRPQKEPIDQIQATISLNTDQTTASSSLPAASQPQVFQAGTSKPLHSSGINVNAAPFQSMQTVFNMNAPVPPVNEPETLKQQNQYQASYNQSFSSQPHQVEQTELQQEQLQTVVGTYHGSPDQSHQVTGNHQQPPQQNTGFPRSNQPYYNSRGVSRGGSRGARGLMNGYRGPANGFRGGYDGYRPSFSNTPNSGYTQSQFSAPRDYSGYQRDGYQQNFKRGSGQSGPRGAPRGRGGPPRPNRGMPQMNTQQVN
# KHDRBS1, Q07666, UniProt Q07666, whole entry: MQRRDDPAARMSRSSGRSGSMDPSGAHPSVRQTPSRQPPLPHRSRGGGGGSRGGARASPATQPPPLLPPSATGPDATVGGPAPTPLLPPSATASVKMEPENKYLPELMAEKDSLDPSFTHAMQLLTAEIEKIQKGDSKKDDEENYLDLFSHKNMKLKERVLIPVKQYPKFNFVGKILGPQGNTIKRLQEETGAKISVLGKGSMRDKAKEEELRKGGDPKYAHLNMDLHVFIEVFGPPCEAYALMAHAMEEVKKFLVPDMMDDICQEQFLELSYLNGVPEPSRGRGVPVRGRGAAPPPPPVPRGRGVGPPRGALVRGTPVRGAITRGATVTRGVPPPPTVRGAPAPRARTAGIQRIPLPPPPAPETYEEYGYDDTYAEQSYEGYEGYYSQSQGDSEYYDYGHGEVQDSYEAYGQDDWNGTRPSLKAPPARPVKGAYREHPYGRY
# HIST1H1E, P10412, UniProt P10412, whole entry: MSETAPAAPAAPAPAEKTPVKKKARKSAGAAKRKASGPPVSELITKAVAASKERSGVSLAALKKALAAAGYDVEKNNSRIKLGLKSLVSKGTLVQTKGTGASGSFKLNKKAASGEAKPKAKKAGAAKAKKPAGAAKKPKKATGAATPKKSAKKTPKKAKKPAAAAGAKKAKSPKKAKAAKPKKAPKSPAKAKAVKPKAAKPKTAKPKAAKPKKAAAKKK
# SP1, P08047, UniProt P08047, whole entry: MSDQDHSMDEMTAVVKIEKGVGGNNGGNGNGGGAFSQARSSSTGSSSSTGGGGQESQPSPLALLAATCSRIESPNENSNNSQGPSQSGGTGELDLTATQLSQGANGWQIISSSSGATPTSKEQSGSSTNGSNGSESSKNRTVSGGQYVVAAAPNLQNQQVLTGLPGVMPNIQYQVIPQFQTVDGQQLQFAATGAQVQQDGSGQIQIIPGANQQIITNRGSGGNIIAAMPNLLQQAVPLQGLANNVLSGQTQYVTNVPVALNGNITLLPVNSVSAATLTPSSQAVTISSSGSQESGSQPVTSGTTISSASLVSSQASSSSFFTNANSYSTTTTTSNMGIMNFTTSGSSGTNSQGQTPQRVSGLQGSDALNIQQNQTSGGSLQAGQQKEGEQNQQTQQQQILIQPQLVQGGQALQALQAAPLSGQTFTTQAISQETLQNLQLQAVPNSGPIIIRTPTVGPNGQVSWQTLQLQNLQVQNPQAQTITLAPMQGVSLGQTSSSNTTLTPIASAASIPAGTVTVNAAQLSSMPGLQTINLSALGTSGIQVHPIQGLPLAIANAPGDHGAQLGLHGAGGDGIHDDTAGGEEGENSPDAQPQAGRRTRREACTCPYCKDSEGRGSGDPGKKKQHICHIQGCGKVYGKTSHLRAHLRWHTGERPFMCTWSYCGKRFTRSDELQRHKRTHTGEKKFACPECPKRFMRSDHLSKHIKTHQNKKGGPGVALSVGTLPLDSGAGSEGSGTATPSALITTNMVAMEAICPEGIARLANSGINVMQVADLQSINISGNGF
# CDC27, P30260, UniProt P30260, whole entry: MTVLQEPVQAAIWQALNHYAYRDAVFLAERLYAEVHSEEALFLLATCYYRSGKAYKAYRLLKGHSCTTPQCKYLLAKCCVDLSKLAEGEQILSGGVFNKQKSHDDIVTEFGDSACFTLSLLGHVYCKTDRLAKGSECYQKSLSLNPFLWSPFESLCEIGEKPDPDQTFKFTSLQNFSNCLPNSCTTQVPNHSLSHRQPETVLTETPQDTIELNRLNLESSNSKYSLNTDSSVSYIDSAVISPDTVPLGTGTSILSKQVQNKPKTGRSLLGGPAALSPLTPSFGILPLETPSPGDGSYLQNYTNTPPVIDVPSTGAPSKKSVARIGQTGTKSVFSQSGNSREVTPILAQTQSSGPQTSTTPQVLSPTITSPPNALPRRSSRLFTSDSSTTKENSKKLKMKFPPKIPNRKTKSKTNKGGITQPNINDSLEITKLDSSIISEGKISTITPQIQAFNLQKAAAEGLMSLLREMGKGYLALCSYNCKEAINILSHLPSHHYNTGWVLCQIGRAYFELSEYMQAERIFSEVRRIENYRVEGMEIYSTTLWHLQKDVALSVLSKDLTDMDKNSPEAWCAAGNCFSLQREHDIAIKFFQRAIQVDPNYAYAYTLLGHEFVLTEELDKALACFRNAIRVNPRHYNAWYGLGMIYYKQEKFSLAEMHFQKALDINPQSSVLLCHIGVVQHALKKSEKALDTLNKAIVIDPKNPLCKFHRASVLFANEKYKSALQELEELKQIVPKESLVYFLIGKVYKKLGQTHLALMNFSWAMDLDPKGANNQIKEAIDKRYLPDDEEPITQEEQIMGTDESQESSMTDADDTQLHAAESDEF
# NCAPH, Q15003, UniProt Q15003, whole entry: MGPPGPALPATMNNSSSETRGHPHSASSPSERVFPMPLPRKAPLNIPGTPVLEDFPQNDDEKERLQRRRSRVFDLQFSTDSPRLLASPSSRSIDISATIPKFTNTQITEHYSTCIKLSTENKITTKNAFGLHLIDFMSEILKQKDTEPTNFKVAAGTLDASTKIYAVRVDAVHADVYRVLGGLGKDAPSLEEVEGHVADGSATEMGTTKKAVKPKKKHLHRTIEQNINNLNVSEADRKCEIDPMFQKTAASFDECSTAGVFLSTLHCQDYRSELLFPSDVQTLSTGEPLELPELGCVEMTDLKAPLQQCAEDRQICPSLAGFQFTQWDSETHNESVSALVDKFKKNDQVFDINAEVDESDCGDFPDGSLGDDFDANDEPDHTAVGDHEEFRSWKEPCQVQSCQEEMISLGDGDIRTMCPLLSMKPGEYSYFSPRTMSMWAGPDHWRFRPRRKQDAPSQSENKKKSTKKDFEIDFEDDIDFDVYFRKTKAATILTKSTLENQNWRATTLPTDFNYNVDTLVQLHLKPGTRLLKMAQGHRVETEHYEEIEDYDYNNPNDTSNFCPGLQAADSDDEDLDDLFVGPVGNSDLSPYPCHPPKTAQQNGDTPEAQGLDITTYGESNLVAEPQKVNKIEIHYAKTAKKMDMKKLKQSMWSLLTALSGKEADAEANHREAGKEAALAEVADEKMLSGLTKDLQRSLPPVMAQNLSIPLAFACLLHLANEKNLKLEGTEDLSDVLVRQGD
# NDUFB7, P17568, UniProt P17568, whole entry: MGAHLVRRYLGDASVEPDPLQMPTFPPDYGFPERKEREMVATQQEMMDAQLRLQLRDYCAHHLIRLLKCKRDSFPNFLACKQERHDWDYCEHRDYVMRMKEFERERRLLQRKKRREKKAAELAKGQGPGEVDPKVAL
# RFC4, P35249, UniProt P35249, whole entry: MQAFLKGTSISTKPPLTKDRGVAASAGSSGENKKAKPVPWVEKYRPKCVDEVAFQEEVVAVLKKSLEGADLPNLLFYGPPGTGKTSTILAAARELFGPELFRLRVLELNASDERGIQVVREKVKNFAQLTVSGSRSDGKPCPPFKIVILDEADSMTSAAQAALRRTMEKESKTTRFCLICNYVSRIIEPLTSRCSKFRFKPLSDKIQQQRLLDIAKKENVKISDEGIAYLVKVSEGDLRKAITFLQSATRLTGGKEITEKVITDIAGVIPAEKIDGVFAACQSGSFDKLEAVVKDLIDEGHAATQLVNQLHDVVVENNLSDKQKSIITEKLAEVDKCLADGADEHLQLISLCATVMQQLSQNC
# Some of the results follow. Only hits are listed; about a third recur on repeated control peptides.
# B1: RP11-432J24.5_2 (peptide)
# chain: MHIQVFVDMCFLLSW
# B2: RP11-432J24.5_2 (peptide)
# chain: EMHFASSRNLPDDPE
# B3: IDI2-AS1 (peptide)
# chain: EVGRRVKEMVMLVAP
# Key:
# Assay in all cases: PRISMA enrichment of interactor (LFQ) in peptide spot vs all other peptide spots (log2 fold change); higher = stronger / more specific binding of the interactor to the peptide
# ATP6V0D1, P61421 = target: ATP6V0D1, P61421
# Experimental: (§1)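 PRISMA: 15-aa overlapping tiles (offset 8 aa) of 60 microproteins, plus SOS1/GLUT1 control peptides, were spot-synthesized on cellulose membranes in triplicate. Membranes were incubated with benzonase-treated HEK293T lysate, and bound proteins were identified by LC-MS/MS with LFQ. Enrichment is the log2 fold change of each protein in one spot versus all other spots. Only interactors passing the significance cutoff are listed.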
# CAPRIN1, Q14444 = target: CAPRIN1, Q14444
# Experimental: as §1
# CSRP2, Q16527 = target: CSRP2, Q16527
# Experimental: as §1
# DDX5, P17844 = target: DDX5, P17844
# Experimental: as §1
# DLST, P36957 = target: DLST, P36957
# Experimental: as §1
# EIF4H, Q15056 = target: EIF4H, Q15056
# Experimental: as §1
# G3BP2, Q9UN86 = target: G3BP2, Q9UN86
# Experimental: as §1
# HNRNPA1, P09651 = target: HNRNPA1, P09651
# Experimental: as §1
# ITCH, Q96J02 = target: ITCH, Q96J02
# Experimental: as §1
# KHDRBS1, Q07666 = target: KHDRBS1, Q07666
# Experimental: as §1
# LSM12, Q3MHD2 = target: LSM12, Q3MHD2
# Experimental: as §1
# NFX1, Q12986 = target: NFX1, Q12986
# Experimental: as §1
# PRDX4, Q13162 = target: PRDX4, Q13162
# Experimental: as §1
# SERF2, P84101 = target: SERF2, P84101
# Experimental: as §1
# TXNDC5, Q8NBS9 = target: TXNDC5, Q8NBS9
# Experimental: as §1
# C19orf53, Q9UNZ5 = target: C19orf53, Q9UNZ5
# Experimental: as §1
# CSNK1A1, P48729 = target: CSNK1A1, P48729
# Experimental: as §1
# EXOSC10, Q01780 = target: EXOSC10, Q01780
# Experimental: as §1
# FGA, P02671 = target: FGA, P02671
# Experimental: as §1
# HERC5, Q9UII4 = target: HERC5, Q9UII4
# Experimental: as §1
# HIST1H1E, P10412 = target: HIST1H1E, P10412
# Experimental: as §1
# HOMER2, Q9NSB8 = target: HOMER2, Q9NSB8
# Experimental: as §1
# HTATSF1, O43719 = target: HTATSF1, O43719
# Experimental: as §1
# KIF18A, Q8NI77 = target: KIF18A, Q8NI77
# Experimental: as §1
# MRPS14, O60783 = target: MRPS14, O60783
# Experimental: as §1
# MRPS6, P82932 = target: MRPS6, P82932
# Experimental: as §1
# NXT1, Q9UKK6 = target: NXT1, Q9UKK6
# Experimental: as §1
# ORC4, O43929 = target: ORC4, O43929
# Experimental: as §1
# SCP2, P22307 = target: SCP2, P22307
# Experimental: as §1
# SOAT1, P35610 = target: SOAT1, P35610
# Experimental: as §1
# SP1, P08047 = target: SP1, P08047
# Experimental: as §1
# TMEM256-PLSCR3 = target: TMEM256-PLSCR3
# Experimental: as §1
# ZRANB2, O95218 = target: ZRANB2, O95218
# Experimental: as §1
# CDC27, P30260 = target: CDC27, P30260
# Experimental: as §1
# CPSF3, Q9UKF6 = target: CPSF3, Q9UKF6
# Experimental: as §1
# CSTF1, Q05048 = target: CSTF1, Q05048
# Experimental: as §1
# GRB2, P62993 = target: GRB2, P62993
# Experimental: as §1
# H2AFV, Q71UI9 = target: H2AFV, Q71UI9
# Experimental: as §1
# HMGA1, P17096 = target: HMGA1, P17096
# Experimental: as §1
# LMNA, P02545 = target: LMNA, P02545
# Experimental: as §1
# MEPCE, Q7L2J0 = target: MEPCE, Q7L2J0
# Experimental: as §1
# MPDU1, O75352 = target: MPDU1, O75352
# Experimental: as §1
# MRPL39, Q9NYK5 = target: MRPL39, Q9NYK5
# Experimental: as §1
# MRPS27, Q92552 = target: MRPS27, Q92552
# Experimental: as §1
# NCAPH, Q15003 = target: NCAPH, Q15003
# Experimental: as §1
# NDUFB7, P17568 = target: NDUFB7, P17568
# Experimental: as §1
# NUP107, P57740 = target: NUP107, P57740
# Experimental: as §1
# PPAN-P2RY11 = target: PPAN-P2RY11
# Experimental: as §1
# PSMA5, P28066 = target: PSMA5, P28066
# Experimental: as §1
# RFC4, P35249 = target: RFC4, P35249
# Experimental: as §1
# SCAMP3, O14828 = target: SCAMP3, O14828
# Experimental: as §1
binder,measurement,setting,value
B1,PRISMA enrichment of interactor (log2),"ATP6V0D1, P61421",5.97
same,PRISMA enrichment of interactor (log2),"CAPRIN1, Q14444",5.77
same,PRISMA enrichment of interactor (log2),"CSRP2, Q16527",5.94
same,PRISMA enrichment of interactor (log2),"DDX5, P17844",7.29
same,PRISMA enrichment of interactor (log2),"DLST, P36957",4.46
same,PRISMA enrichment of interactor (log2),"EIF4H, Q15056",5.28
same,PRISMA enrichment of interactor (log2),"G3BP2, Q9UN86",6.47
same,PRISMA enrichment of interactor (log2),"HNRNPA1, P09651",5.25
same,PRISMA enrichment of interactor (log2),"ITCH, Q96J02",5.5
same,PRISMA enrichment of interactor (log2),"KHDRBS1, Q07666",5.31
same,PRISMA enrichment of interactor (log2),"LSM12, Q3MHD2",4.69
same,PRISMA enrichment of interactor (log2),"NFX1, Q12986",4.75
same,PRISMA enrichment of interactor (log2),"PRDX4, Q13162",5.93
same,PRISMA enrichment of interactor (log2),"SERF2, P84101",6.93
same,PRISMA enrichment of interactor (log2),"TXNDC5, Q8NBS9",6.23
B2,PRISMA enrichment of interactor (log2),"ATP6V0D1, P61421",8.19
same,PRISMA enrichment of interactor (log2),"C19orf53, Q9UNZ5",7
same,PRISMA enrichment of interactor (log2),"CSNK1A1, P48729",4.89
same,PRISMA enrichment of interactor (log2),"EXOSC10, Q01780",5.6
same,PRISMA enrichment of interactor (log2),"FGA, P02671",5.23
same,PRISMA enrichment of interactor (log2),"HERC5, Q9UII4",4.62
same,PRISMA enrichment of interactor (log2),"HIST1H1E, P10412",7.62
same,PRISMA enrichment of interactor (log2),"HOMER2, Q9NSB8",4.13
same,PRISMA enrichment of interactor (log2),"HTATSF1, O43719",5.57
same,PRISMA enrichment of interactor (log2),"KIF18A, Q8NI77",5.57
same,PRISMA enrichment of interactor (log2),"MRPS14, O60783",5
same,PRISMA enrichment of interactor (log2),"MRPS6, P82932",4.34
same,PRISMA enrichment of interactor (log2),"NXT1, Q9UKK6",4.66
same,PRISMA enrichment of interactor (log2),"ORC4, O43929",8.23
same,PRISMA enrichment of interactor (log2),"SCP2, P22307",5.87
same,PRISMA enrichment of interactor (log2),"SOAT1, P35610",5.58
same,PRISMA enrichment of interactor (log2),"SP1, P08047",3.85
same,PRISMA enrichment of interactor (log2),TMEM256-PLSCR3,4.1
same,PRISMA enrichment of interactor (log2),"ZRANB2, O95218",4.98
B3,PRISMA enrichment of interactor (log2),"ATP6V0D1, P61421",7.43
same,PRISMA enrichment of interactor (log2),"C19orf53, Q9UNZ5",9.32
same,PRISMA enrichment of interactor (log2),"CDC27, P30260",6.42
same,PRISMA enrichment of interactor (log2),"CPSF3, Q9UKF6",5.15
same,PRISMA enrichment of interactor (log2),"CSTF1, Q05048",3.95
same,PRISMA enrichment of interactor (log2),"GRB2, P62993",5.96
same,PRISMA enrichment of interactor (log2),"H2AFV, Q71UI9",4.98
same,PRISMA enrichment of interactor (log2),"HMGA1, P17096",4.25
same,PRISMA enrichment of interactor (log2),"LMNA, P02545",5.12
same,PRISMA enrichment of interactor (log2),"MEPCE, Q7L2J0",12.5
same,PRISMA enrichment of interactor (log2),"MPDU1, O75352",3.72
same,PRISMA enrichment of interactor (log2),"MRPL39, Q9NYK5",5.55
same,PRISMA enrichment of interactor (log2),"MRPS27, Q92552",5.78
same,PRISMA enrichment of interactor (log2),"NCAPH, Q15003",6.49
same,PRISMA enrichment of interactor (log2),"NDUFB7, P17568",4.67
same,PRISMA enrichment of interactor (log2),"NUP107, P57740",5.6
same,PRISMA enrichment of interactor (log2),PPAN-P2RY11,4.79
same,PRISMA enrichment of interactor (log2),"PSMA5, P28066",8.99
same,PRISMA enrichment of interactor (log2),"RFC4, P35249",5.73
same,PRISMA enrichment of interactor (log2),"SCAMP3, O14828",3.75

# Retrieved one by one from the list above:
binder,measurement,setting,value
B2,PRISMA enrichment of interactor (log2),"NXT1, Q9UKK6",4.66
B3,PRISMA enrichment of interactor (log2),"PSMA5, P28066",8.99
B2,PRISMA enrichment of interactor (log2),"HOMER2, Q9NSB8",4.13
B3,PRISMA enrichment of interactor (log2),"MPDU1, O75352",3.72
